The source of these data is PMC4538849.

By UniProt entry, the sequences of proteins in these tests, tags left out.
UniProt Q8IXI1: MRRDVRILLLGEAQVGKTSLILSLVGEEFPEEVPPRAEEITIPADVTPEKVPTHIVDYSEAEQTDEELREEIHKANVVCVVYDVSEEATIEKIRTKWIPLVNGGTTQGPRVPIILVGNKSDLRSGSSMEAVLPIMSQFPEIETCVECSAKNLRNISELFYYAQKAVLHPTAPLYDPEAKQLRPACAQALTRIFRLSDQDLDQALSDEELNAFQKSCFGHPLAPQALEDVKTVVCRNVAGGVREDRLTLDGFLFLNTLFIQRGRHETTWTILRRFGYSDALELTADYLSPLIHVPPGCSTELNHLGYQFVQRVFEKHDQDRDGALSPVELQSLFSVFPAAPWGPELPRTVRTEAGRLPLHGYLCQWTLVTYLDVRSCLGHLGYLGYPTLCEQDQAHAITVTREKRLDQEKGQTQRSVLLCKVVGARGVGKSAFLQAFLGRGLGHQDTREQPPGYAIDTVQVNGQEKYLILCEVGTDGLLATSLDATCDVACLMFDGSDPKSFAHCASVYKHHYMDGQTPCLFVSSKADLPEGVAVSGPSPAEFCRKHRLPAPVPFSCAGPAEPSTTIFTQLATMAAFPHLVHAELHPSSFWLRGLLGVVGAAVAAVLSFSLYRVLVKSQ
UniProt Q8IXI2: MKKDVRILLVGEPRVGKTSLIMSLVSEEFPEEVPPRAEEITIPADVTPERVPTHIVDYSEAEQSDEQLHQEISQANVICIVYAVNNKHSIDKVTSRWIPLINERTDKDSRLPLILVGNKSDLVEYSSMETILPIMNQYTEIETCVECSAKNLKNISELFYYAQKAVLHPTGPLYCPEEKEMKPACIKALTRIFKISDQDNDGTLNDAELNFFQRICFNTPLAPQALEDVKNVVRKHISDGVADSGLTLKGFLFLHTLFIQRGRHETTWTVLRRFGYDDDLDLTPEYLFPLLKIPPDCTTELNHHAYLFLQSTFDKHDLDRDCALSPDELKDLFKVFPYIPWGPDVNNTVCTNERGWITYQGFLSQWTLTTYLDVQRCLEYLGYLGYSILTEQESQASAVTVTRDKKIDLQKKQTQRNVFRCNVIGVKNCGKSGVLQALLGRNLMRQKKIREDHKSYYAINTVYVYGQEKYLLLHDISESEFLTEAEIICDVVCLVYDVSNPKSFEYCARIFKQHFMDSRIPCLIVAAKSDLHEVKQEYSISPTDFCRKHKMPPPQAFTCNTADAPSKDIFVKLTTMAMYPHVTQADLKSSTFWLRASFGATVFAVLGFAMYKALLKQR
UniProt P49454: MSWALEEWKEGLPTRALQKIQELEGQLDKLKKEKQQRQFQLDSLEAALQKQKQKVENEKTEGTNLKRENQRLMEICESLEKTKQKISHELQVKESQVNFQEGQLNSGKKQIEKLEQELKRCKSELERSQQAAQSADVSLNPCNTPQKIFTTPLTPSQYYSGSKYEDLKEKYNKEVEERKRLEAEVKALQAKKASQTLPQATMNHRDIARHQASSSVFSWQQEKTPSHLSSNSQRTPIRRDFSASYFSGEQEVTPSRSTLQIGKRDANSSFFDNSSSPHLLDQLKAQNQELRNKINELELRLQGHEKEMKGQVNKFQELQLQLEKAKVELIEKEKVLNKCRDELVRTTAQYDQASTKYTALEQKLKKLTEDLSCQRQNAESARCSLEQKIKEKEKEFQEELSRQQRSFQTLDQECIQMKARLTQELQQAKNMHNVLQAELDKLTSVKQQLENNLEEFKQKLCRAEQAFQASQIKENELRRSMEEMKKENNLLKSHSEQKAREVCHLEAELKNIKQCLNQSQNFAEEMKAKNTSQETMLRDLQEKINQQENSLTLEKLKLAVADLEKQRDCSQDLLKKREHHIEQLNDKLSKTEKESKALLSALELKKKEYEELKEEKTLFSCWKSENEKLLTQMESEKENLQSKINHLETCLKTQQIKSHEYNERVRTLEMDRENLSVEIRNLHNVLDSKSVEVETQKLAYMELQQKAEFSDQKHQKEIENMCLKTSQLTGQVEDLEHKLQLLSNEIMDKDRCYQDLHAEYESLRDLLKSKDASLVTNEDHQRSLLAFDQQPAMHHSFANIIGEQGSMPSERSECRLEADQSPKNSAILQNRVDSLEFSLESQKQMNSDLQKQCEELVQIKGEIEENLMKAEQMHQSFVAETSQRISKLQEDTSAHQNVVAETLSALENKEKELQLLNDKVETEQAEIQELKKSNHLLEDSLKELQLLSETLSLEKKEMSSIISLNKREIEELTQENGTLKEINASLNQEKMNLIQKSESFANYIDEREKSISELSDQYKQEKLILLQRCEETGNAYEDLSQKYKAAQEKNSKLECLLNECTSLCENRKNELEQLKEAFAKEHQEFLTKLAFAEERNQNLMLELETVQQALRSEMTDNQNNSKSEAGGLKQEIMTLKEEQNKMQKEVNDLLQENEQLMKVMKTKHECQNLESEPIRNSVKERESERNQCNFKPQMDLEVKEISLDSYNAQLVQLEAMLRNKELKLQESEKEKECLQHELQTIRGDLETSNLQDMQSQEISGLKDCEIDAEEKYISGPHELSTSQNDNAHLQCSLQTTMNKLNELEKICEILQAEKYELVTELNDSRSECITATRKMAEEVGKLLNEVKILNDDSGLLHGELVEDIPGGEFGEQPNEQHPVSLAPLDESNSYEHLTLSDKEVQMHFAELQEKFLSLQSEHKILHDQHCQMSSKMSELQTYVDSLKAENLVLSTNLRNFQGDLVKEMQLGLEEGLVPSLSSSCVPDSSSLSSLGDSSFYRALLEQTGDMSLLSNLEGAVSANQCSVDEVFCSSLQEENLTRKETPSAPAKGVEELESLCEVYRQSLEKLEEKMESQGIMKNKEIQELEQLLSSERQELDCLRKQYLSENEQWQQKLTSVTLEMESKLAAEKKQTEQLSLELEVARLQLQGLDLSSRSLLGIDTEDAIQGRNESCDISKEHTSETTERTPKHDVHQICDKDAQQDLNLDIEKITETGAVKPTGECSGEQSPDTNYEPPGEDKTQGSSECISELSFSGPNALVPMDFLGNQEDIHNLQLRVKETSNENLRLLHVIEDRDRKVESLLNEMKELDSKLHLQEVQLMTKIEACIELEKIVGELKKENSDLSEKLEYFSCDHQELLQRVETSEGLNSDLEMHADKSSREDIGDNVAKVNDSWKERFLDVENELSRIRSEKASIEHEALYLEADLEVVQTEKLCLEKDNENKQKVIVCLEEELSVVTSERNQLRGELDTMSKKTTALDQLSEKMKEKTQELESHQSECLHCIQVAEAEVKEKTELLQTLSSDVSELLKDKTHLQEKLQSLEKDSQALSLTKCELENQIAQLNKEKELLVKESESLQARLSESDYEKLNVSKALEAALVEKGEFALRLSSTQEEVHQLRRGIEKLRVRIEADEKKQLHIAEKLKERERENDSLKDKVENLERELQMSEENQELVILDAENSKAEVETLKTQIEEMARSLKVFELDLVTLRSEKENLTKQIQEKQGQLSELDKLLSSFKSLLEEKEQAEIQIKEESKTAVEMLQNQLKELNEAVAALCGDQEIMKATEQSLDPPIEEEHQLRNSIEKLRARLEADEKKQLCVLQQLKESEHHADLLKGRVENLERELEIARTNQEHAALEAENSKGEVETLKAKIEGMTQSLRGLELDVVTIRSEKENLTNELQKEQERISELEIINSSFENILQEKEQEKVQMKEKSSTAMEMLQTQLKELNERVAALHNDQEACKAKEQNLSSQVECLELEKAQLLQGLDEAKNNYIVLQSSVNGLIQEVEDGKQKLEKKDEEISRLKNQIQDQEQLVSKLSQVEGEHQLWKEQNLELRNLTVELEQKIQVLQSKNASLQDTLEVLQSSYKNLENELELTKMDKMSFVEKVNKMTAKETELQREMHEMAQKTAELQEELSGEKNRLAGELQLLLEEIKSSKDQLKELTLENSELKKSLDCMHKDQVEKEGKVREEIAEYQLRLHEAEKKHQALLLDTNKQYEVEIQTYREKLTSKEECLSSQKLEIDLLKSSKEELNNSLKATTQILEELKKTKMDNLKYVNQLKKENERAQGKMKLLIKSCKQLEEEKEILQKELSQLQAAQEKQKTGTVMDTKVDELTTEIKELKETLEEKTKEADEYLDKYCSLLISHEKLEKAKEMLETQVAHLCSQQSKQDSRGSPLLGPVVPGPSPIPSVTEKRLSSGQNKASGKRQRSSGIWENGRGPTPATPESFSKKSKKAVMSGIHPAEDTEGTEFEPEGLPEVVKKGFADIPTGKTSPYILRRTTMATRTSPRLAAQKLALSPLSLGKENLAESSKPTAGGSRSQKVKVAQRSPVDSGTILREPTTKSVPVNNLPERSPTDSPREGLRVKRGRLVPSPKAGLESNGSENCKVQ

No constants are given. Whether binding was seen depends on the method and setting. Binding seen in cells or lysates may run through a third protein. These calls come from enrichment with a bait or labelling near it, and not all partners need be listed.

Test [1] has as its target 3 × Flag-6 × HIS-Miro2 (human) (UniProt Q8IXI1). The test is described as follows: affinity purification with mass spectrometry; 3xFlag-6His-Miro1 or -Miro2 from doxycycline-induced T-Rex-293 whole-cell extracts (2% Triton) on M2-Flag magnetic beads, washed with 0.2% digitonin buffer, eluted with 3xFlag peptide, LC-MS/MS.
The target in test [2] is 3 × Flag-6 × HIS-Miro1 (human) (UniProt Q8IXI2). Kind of test: affinity purification with mass spectrometry; SILAC: unlabelled cells expressing 3xFlag-6His-Miro1 mixed in equal amounts with heavy Arg10/Lys8-labelled control HEK293 T-Rex cells before lysis; Flag purification; light to heavy ratio of peptides.

On to Miro1 (from UniProt Q8IXI2 1-618), for which, in test [1], the binding result is “binds”.

“centromeric protein F (Cenp-F) (from UniProt P49454 1-3114)”: the binding entry in test [2] is on record as “binds”.
